In test [1] the target is PFE55^GFP (Plasmodium falciparum 3D7) (UniProt Q8I489). Kind of test: affinity purification with mass spectrometry.
Test [2] has as its target PfHsp70x (Plasmodium falciparum (endogenous in 3D7-derived parasites)). Put plainly: affinity purification with mass spectrometry.

Chains of the proteins cited; added tags and fusions are not shown. Lines headed by an entry give the natural chain unless they say otherwise; changes in a name come on top.
UniProt Q8I489: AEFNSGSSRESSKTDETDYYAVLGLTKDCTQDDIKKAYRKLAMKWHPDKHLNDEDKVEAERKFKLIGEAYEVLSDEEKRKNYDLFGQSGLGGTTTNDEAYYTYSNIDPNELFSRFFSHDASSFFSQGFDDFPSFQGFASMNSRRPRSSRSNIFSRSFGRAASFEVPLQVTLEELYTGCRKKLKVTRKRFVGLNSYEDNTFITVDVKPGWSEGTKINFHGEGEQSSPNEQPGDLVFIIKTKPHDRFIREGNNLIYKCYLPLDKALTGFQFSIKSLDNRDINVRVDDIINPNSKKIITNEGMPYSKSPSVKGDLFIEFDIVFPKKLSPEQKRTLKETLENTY
UniProt Q8IM16: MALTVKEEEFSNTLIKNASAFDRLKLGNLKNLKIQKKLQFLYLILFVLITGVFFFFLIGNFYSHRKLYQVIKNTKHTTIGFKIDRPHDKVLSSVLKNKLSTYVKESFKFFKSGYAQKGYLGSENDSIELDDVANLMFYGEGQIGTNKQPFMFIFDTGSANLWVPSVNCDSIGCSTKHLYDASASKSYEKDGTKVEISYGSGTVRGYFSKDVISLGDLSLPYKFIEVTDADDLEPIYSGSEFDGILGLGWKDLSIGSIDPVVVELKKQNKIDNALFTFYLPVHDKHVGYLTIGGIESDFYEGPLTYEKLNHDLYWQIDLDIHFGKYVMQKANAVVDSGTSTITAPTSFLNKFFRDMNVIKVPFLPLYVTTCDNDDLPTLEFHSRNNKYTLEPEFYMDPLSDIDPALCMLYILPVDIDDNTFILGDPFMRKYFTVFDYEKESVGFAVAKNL
UniProt Q8IM77: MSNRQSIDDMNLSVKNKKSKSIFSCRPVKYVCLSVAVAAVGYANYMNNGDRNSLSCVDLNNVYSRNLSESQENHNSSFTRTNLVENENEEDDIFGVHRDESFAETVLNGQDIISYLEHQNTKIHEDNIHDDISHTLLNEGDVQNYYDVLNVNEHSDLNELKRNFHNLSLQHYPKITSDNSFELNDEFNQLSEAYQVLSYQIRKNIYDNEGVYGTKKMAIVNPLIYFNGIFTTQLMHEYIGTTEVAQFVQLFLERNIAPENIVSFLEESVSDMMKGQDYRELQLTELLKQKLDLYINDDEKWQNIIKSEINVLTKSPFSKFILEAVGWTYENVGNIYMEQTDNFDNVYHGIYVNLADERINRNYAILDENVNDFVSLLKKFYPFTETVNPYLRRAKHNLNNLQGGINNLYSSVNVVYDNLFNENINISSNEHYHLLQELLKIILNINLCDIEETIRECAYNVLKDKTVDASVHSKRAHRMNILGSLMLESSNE
UniProt Q8IAK9: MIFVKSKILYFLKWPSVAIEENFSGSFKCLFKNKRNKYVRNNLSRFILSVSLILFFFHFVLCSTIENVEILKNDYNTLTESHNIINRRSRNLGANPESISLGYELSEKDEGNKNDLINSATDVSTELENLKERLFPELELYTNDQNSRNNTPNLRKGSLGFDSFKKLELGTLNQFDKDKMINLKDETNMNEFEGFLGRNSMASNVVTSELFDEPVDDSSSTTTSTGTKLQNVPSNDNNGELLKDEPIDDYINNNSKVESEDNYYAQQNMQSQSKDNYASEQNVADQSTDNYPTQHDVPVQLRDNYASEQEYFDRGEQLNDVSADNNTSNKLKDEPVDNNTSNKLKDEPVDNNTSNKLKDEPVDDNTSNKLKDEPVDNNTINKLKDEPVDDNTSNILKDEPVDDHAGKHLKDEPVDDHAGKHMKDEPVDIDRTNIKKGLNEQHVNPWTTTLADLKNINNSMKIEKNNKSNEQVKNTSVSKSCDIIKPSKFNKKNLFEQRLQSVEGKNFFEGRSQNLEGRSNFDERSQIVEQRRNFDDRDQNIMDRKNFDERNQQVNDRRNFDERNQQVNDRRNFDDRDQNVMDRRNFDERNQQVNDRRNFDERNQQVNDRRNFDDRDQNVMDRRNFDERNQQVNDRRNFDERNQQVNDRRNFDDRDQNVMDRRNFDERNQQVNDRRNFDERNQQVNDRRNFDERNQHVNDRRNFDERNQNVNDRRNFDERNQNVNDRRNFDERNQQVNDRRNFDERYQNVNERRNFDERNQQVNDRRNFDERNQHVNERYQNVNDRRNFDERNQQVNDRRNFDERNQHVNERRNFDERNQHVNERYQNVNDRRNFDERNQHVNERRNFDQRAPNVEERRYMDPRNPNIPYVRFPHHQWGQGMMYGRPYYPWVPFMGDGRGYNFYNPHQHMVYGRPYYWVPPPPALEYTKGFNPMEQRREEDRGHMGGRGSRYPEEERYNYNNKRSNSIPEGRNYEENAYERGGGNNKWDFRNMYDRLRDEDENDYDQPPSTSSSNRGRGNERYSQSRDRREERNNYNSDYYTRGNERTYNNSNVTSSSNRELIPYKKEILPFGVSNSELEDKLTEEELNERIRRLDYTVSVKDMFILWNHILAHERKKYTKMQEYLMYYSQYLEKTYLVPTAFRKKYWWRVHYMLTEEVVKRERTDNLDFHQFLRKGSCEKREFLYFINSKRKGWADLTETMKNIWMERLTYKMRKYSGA
UniProt Q8IM15: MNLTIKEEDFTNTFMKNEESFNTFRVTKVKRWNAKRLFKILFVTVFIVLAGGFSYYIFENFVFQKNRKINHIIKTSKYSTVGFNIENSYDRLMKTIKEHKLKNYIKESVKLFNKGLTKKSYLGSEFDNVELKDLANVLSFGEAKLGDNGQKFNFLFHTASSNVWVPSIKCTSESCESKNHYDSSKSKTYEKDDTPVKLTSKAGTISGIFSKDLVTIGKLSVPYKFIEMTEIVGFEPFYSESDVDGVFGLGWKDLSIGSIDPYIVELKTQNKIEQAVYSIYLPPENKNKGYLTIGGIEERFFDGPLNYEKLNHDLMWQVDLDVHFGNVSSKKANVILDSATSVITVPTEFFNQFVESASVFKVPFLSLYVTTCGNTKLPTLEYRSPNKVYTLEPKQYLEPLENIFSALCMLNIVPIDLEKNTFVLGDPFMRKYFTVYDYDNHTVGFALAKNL

No constants are given. Whether binding was seen depends on the method and setting. Binding seen in cells or lysates may run through a third protein. Here binding means that the protein was enriched with, or labelled near, the bait; the list need not be complete.

In the case of “plasmepsin IV (PM4) (from UniProt Q8IM16) (enzyme)”, the binding result in test [1] is “binds”.

Regarding “DnaJ protein, putative (PF3D7_1401100) (from UniProt Q8IM77)”, the binding result in test [1] is recorded as “binds”.

On to PfHsp101 (from UniProt Q8IIJ8), for which the binding entry in test [1] was “binds”.

As for PfPHIST_0801 (from UniProt Q8IAK9), the binding result in test [1] is given as “binds”.

In the case of “plasmepsin III (HAP) (from UniProt Q8IM15) (enzyme)”, the binding entry in test [1] is given as “binds”.

B1: high molecular weight rhoptry protein 3 (RhopH3) (protein, UniProt Q8I395 25-897)
chain: KDVFAGFVTKKLKTLLDCNFALYYNFKGNGPDAGSFLDFVDEPEQFYWFVEHFLSVKFRVPKHLKDKNIHNFTPCLNRSWVSEFLKEYEEPFVNPVMKFLDKEQRLFFTYNFGDVEPQGKYTYFPVKEFHKYCILPPLIKTNIKDGESGEFLKYQLNKEEYKVFLSSVGSQMTAIKNLYSTVEDEQRKQLLKVIIENESTNDISVQCPTYNIKLHYTKECANSNNILKCIDEFLRKTCEKKTESKHPSADLCEHLQFLFESLKNPYLDNFKKFMTNSDFTLIKPQSVWNVPIFDIYKPKNYLDSVQNLDTECFKKLNSKNLIFLSFHDDIPNNPYYNVELQEIVKLSTYTYSIFDKLYNFFFVFKKSGAPISPVSVKELSHNITDFSFKEDNSEIQCQNVRKSLDLEVDVETMKGIAAEKLCKIIEKFILTKDDASKPEKSDIHRGFRILCILISTHVEAYNIVRQLLNMESMISLTRYTSLYIHKFFKSVTLLKGNFLYKNNKAIRYSRACSKASLHVPSVLYRRNIYIPETFLSLYLGLSNLVSSNPSSPFFEYAIIEFLVTYYNKGSEKFVLYFISIISVLYINEYYYEQLSCFYPKEFELIKSRMIHPNIVDRILKGIDNLMKSTRYDKMRTMYLDFESSDIFSREKVFTALYNFDSFIKTNEQLKKKNLEEISEIPVQLETSNDGIGYRKQDVLYETDKPQTMDEASYEETVDEDAHHVNEKQHSAHFLDAIAEKDILEEKTKDQDLEIELYKYMGPLKEQSKSTSAASTSDEISGSEGPSTESTSTGNQGEDKTTDNTYKEMEELEEAEGTSNLKKGLEFYKSSLKLDQLDKEKPKKKKSKRKKKRDSSSDRILLEESKTFTSENEL
For B1, in test [2], the binding entry is reported as “binds”.

B2: high molecular weight rhoptry protein 2 (RhopH2) (protein, UniProt C0H571 20-1378)
chain: LELNEKVSIKYGAEQGVGSADSNTKLCSDILKYLYMDEYLSEGDKATFEKKCHNVIGNIRNTFSNKNTIKEGNEFLMSILHMKSLYGNNNNNNAGSESDVTLKSLYLSLKGSQNTEGESEVPSDDEINKTIMNFVKFNKYLLDNSNDIKKVHDFLVLTSQSNENLLPNKEKLFEQIVDQIKYFDEYFFASGGKIKVKKGYLKYNFLDIYKQPVCSAYLHLCSRYYESVSIYIRLKKVFNGIPAFLDKNCRKVKGEEFKKLMDMELKHNHIVERFDKYIISDDLYYVNMKVFDLKNVDKIQVSKIDDINNLNIYEHKETMHLSAKNLSRYIDIKKELNDEKAYKQLMSAIRKYVTTLTKADSDITYFVKQLDDEEIERFLIDLNFFLYNGFLRITEDKHLINADDVSPSYINLYRSNNIVALYILKTQYEENKLSEYRAHKFYRRKRVSNITNDMIKKDFTQTNALTNLPNLDNKKTTEYYLKEYENFVENFQPDLHDIMKLQLFFTMAFKDCNVNQNFTETSKKLWFDLLYAYDKFGWFYIHPNEVINSINKTDFVRHVLVSRNFLLKNNDQLTFLETQVAKIVEIINLSLEVDKSPDSLDFSIPMNFFNHKNGYHVMNDDKLKLLTSYEYIDSIANNYFFLSEYKNDVFRTGNNFKLYFNLPNIYSLAYQLFNELAININVITNVPLKKYLKYNASYAYFTLMNMIGKNHDIYSKGSRFVYASYILGLVFFIESHIDIARLKPKDFFFMKQSLPIIDHVYHKDLKTLKKNCTLLTDFMKINKNSQNYSLTHTEEMIKILGLLTVTLWAKEGKKSVYYDDDVSLYRKLMVSCVFNGGETIQEKLANNIEKSCDISQYGIKSKNLKDMIDINLSIHKWNPAEIEKLAYSFVLSCKMQKLMYKPMNVEKLPLEDYYKLSLAPDMVKTYHCYKLGKQAAELLESIILKKKFVRFRVTDAIDVYDFFYIKKVLSSRIKKEYNEFLQDKRAFEKKELETILNNSPFSEEQTMKLINSYECHWFTSYENFRILWMHASSNLGTGTYLKNFFSELWQNIRFLFKSKLKIRDMEYFSGDISQMNLLDYYSPMVHSESHCQEKMQVLFITLRDSKEENRSEIAQKVKSAYYQCKLDYYKNHHSDFIHRIHPNDFLNNKVYVLKQPYYLMSNVPLNNPKKVSRLFVTEGTLEYLLLDKINIPECFGPCTKLHFNKVVIKESKQRIYDMTINNALVPEIQPYNRRKYMTIYINEAYIKNIVSDALTSEEIKRHDIQKGNIKICMGKSTYLTEPILTEEHFNLTHKPVYDFSSVKHNLKVFHMKNEHLVSEDPNDDCFINYPLATINLDISDPYKEISEDLIKNLYILKSS
B2: the binding result in test [2] is recorded as “binds”.

(Values after paper PMC5316994.)
